Test results: US9919998B2, “Antibacterial agents: Nα-aroyl-N-aryl-phenylalaninamides” (priority 2014, dated 2018)
Some results were stated once for a whole list of compounds, not compound by compound. Some ranges recur; such a range may be that of the whole group of compounds.

Test system: Mycobacterium smegmatis, Mycobacterium tuberculosis, and Mycobacterium avium
Assay type: cell-based

Row | Structure (SMILES) | MICs, inhibition of mycobacterial growth [g/mL]
1 | O=C(NC(Cc1ccccc1)C(=O)Nc1cc(F)ccc1N1CCNCC1)c1ccccc1F (racemic) [IX-214, 2-fluoro-N-(1-((5-fluoro-2-(piperazin-1-yl)phenyl)amino)-1-oxo-3-phenylpropan-2-yl)benzamide] | 0.073 to 0.78
2 | O=C(N[C@H](Cc1ccccc1)C(=O)Nc1cc(F)ccc1N1CCNCC1)c1ccccc1F [IX-214a, (R)-2-fluoro-N-(1-((5-fluoro-2-(piperazin-1-yl)phenyl)amino)-1-oxo-3-phenylpropan-2-yl)benzamide] | 0.073 to 0.78
3 | O=C(N[C@H](Cc1ccccc1)C(=O)Nc1cc(Cl)ccc1N1CCNCC1)c1ccccc1F [IX-274a, (R)—N-(1-((5-chloro-2-(piperazin-1-yl)phenyl)amino)-1-oxo-3-phenylpropan-2-yl)-2-fluorobenzamide] | 0.073 to 0.78
